Assay results published in paper doi:10.1101/2024.10.04.616592.
No constants are given. Whether binding was seen depends on the method and setting. Binding seen in cells or lysates may run through a third protein. These calls come from enrichment with a bait or labelling near it, and not all partners need be listed.

By UniProt entry, the sequences of proteins in these tests, tags left out.
UniProt Q14145: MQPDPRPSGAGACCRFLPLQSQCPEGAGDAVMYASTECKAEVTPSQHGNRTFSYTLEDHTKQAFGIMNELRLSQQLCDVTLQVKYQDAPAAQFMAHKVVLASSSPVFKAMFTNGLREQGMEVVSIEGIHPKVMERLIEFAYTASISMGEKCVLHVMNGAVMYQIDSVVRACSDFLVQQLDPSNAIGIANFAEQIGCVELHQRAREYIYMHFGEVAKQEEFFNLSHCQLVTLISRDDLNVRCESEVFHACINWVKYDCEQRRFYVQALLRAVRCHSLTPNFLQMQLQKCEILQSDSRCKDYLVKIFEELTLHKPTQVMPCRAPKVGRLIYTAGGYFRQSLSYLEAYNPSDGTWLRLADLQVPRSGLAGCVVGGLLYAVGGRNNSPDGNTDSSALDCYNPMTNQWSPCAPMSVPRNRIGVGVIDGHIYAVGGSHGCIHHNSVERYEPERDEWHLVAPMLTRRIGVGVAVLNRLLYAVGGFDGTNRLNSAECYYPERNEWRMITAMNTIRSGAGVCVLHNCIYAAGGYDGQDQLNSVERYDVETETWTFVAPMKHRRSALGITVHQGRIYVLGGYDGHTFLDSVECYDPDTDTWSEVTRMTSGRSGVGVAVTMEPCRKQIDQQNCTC
UniProt Q9H2G2: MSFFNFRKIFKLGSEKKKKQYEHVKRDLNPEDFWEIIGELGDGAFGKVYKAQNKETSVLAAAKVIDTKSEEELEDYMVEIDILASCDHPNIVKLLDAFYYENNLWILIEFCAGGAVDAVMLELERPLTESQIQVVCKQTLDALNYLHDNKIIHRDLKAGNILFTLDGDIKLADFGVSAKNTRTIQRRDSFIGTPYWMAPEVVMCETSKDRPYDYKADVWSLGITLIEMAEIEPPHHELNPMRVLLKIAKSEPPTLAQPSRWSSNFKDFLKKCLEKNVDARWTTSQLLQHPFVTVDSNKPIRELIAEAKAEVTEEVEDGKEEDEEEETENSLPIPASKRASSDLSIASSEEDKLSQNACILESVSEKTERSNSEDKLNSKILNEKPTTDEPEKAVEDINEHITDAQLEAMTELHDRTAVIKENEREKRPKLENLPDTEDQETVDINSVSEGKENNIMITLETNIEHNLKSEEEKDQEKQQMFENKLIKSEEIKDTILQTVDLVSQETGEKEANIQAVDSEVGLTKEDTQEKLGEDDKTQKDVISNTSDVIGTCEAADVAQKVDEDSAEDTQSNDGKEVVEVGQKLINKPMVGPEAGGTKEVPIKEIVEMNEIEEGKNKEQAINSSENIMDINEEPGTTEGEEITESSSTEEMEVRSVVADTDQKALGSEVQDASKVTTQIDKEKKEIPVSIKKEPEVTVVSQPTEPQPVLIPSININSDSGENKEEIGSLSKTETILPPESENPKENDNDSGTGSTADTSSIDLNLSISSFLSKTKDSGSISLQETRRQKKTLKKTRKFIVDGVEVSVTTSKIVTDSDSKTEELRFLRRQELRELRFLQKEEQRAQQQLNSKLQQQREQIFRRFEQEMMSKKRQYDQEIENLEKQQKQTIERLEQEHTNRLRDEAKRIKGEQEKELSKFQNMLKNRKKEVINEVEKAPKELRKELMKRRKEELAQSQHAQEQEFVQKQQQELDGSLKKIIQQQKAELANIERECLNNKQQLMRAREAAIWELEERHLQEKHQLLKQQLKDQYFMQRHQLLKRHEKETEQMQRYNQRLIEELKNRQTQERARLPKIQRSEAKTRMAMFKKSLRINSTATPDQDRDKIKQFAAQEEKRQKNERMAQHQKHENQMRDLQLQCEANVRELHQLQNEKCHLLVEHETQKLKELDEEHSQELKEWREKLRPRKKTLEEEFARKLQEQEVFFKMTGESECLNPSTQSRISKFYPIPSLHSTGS
UniProt O75155: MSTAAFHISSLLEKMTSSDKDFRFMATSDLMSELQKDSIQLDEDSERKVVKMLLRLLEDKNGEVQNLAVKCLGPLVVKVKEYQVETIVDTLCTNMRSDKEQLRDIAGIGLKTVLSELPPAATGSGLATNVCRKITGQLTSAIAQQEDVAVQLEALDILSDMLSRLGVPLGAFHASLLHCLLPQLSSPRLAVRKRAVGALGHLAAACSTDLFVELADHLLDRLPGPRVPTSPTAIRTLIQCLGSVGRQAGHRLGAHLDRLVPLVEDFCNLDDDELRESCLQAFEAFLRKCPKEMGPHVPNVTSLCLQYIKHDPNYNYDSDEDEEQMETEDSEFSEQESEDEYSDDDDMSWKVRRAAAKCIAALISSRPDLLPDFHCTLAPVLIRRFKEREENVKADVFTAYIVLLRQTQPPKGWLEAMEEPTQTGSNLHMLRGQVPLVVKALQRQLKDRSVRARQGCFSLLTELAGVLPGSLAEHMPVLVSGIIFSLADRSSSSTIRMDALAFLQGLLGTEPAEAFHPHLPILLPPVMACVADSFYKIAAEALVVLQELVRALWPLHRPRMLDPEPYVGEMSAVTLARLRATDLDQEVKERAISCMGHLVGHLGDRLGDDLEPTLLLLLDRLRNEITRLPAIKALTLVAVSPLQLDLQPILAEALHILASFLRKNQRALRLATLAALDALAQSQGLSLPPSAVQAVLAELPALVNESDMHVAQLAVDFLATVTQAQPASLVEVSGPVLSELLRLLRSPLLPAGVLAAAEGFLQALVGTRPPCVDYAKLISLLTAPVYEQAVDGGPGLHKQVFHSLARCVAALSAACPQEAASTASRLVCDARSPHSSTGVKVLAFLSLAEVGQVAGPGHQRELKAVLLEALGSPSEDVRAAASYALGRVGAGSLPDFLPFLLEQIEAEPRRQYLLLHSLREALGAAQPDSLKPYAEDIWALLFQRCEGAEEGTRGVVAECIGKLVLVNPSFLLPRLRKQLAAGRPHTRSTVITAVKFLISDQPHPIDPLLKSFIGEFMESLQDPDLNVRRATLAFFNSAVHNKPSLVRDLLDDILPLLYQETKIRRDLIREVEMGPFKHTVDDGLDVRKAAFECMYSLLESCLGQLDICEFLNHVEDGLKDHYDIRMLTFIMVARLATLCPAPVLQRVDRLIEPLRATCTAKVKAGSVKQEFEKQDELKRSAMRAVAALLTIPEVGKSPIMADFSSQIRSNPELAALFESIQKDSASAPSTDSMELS

B1: TSC22D4, endogenous (protein, UniProt Q9Y3Q8 1-395)
chain: MSGGKKKSSFQITSVTTDYEGPGSPGASDPPTPQPPTGPPPRLPNGEPSPDPGGKGTPRNGSPPPGAPSSRFRVVKLPHGLGEPYRRGRWTCVDVYERDLEPHSFGGLLEGIRGASGGAGGRSLDSRLELASLGLGAPTPPSGLSQGPTSWLRPPPTSPGPQARSFTGGLGQLVVPSKAKAEKPPLSASSPQQRPPEPETGESAGTSRAATPLPSLRVEAEAGGSGARTPPLSRRKAVDMRLRMELGAPEEMGQVPPLDSRPSSPALYFTHDASLVHKSPDPFGAVAAQKFSLAHSMLAISGHLDSDDDSGSGSLVGIDNKIEQAMDLVKSHLMFAVREEVEVLKEQIRELAERNAALEQENGLLRALASPEQLAQLPSSGVPRLGPPAPNGPSV
B2: MCM3, endogenous (protein, UniProt P25205 1-808)
chain: MAGTVVLDDVELREAQRDYLDFLDDEEDQGIYQSKVRELISDNQYRLIVNVNDLRRKNEKRANRLLNNAFEELVAFQRALKDFVASIDATYAKQYEEFYVGLEGSFGSKHVSPRTLTSCFLSCVVCVEGIVTKCSLVRPKVVRSVHYCPATKKTIERRYSDLTTLVAFPSSSVYPTKDEENNPLETEYGLSVYKDHQTITIQEMPEKAPAGQLPRSVDVILDDDLVDKAKPGDRVQVVGTYRCLPGKKGGYTSGTFRTVLIACNVKQMSKDAQPSFSAEDIAKIKKFSKTRSKDIFDQLAKSLAPSIHGHDYVKKAILCLLLGGVERDLENGSHIRGDINILLIGDPSVAKSQLLRYVLCTAPRAIPTTGRGSSGVGLTAAVTTDQETGERRLEAGAMVLADRGVVCIDEFDKMSDMDRTAIHEVMEQGRVTIAKAGIHARLNARCSVLAAANPVYGRYDQYKTPMENIGLQDSLLSRFDLLFIMLDQMDPEQDREISDHVLRMHRYRAPGEQDGDAMPLGSAVDILATDDPNFSQEDQQDTQIYEKHDNLLHGTKKKKEKMVSAAFMKKYIHVAKIIKPVLTQESATYIAEEYSRLRSQDSMSSDTARTSPVTARTLETLIRLATAHAKARMSKTVDLQDAEEAVELVQYAYFKKVLEKEKKRKKRSEDESETEDEEEKSQEDQEQKRKRRKTRQPDAKDGDSYDPYDFSDTEEEMPQVHTPKTADSQETKESQKVELSESRLKAFKVALLDVFREAHAQSIGMNRLTESINRDSEEPFSSVEIQAALSKMQDDNQVMVSEGIIFLI

Assays:
[1] = target: N-terminally miniTurbo-tagged KEAP1 (UniProt Q14145); assay: proximity labelling
[2] = target: C-terminally miniTurbo-tagged KEAP1 (UniProt Q14145); assay: proximity labelling

Molecule	binding [1]	binding [2]
SLK, endogenous (from UniProt Q9H2G2 1-1235)	binds	–
CAND2, endogenous (from UniProt O75155 1-1236)	binds	binds
B1	binds	–
B2	binds	–
